Laboratory results published in patent US20190262463A1.
Results are given in words; binding and its absence hold for the method and conditions named.

Target: TPP-1985, hTNFRSF12 amino acids a28-80-W42A-hIgG1-Fc (human)
Assay: ELISA, coated TWEAKR-Fc, biotinylated IgG titrated; grades explained in p-1341

Binder	binding
P3G5(TPP-2195) (antibody, mouse IgG2a, kappa, V domains shown) VH: QVQLQQSGPEVVRPGVSVKISCKGSGYTFTDYGIHWVKQSHAKSLEWIGVISTYNGYTNYNQKFKGKATMTVDKSSSTAYMELARLTSEDSAIYYCARAYYGNLYYAMDYWGQGTSVTVSS VL: DIVLTQSPASLAVSLGQRATISCRANKSVSTSSYSYMHWYQQKPGQPPKLLIKYASNLESGVPARFSGSGSGTDFILNIHPVEEEDAATYYCQHSRELPFTFGSGTKLEIKR	no binding (tested: IC50 over 50 nM)
TPP-2090 (antibody, human IgG1, kappa, V domains shown) VH: EVQLLESGGGLVQPGGSLRLSCAASGFTFSPYPMIWVRQAPGKGLEWVSYISPSGGSTHYADSVKGRFTISRDNSKNTLYLQMNSLRAEDTAVYYCARGGDTYFDYFDYWGQGTLVTVSS VL: DIQMTQSPSSLSASVGDRVTITCRASQSISGYLNWYQQKPGKAPKLLIYQASSLQSGVPSRFSGSGSGTDFTLTISSLQPEDFATYYCQQSYTSPFITFGQGTKVEIKR	no binding (tested: IC50 over 50 nM)
136.1(TPP-2194) (antibody, mouse IgG2a, kappa, V domains shown) VH: EVKLEESGGGLVQPGGSMKLSCVASGFTFNNYWMSWVRQSPEKGLEWLAEIRLKSDNYATHYAESVKGKFTISRDDSKSRLYLQMNNLRAENTGIYYCTGGFADYFDYWGQGTTLTVSS VL: DIVLTQSPASLTVSLGQRATISCRASQSVSTSSYSYMQWYQQRPGQPPKLLIKYATNLDSGVPARFSGSGSGTDFTLNIHPVEEEDAATYYCQHSWEIPYTFGGGTKLEIKR	no binding (tested: IC50 over 50 nM)
18.3.3(TPP-2193) (antibody, mouse IgG2a, kappa, V domains shown) VH: EVKLGESGGGLVQPGGSMKLSCVASGFPFTKYWMNWVRQSPEKGLEWVAEIRLKSDNYATHYAESAKGRFTISRDDSRSSVYLQMNNLRAEDTAIYYCSPTYADTMDYWGQGTSVTVSS VL: DIVLTQSPASLAVSLGQRATISCKASQSVSTSTYSYMQWYQQRPGQSPKLLIKYASKLDSGVPARFSGSGSGTDFTLNIHPVEEEDTATYYCQHSWELPYTFGGGTRLEIKR	no binding (tested: IC50 over 50 nM)
P4A8(TPP-1324) (antibody, human IgG1, kappa, V domains shown) VH: QVQLVQSGAEVKKPGASVKVSCKGSGYTFTDYGMHWVRQAPGQGLEWMGVISTYNGYTNYNQKFKGRVTMTVDKSTSTAYMELRSLRSDDTAVYYCARAYYGNLYYAMDYWGQGTLVTVSS VL: DIVLTQSPASLAVSLGQRATISCRASKSVSTSSYSYMHWYQQKPGQPPKLLIKYASNLESGVPARFSGSGSGTDFSLNIHPMEEDDTAMYFCQHSRELPFTFGGGTKLEIKR	no binding (tested: IC50 over 50 nM)
